Functional effect data for one sequence are collected here from patent publication US5385834.

This series concerns the target T7 RNA polymerase mutant GP1(lys222), expressed from pKGP-HA1mut4 or pMutA/B E222K (Bacteriophage T7) (UniProt P00573). The series can be described thus: activity in cells. As to conditions: 200 colonies on kan/amp/cam; usage comparable to wild-type enzyme; protein in cells; only the site is given.

As for “TAATACGACTCACTATAGGGAGA (double strand) [consensus T7 phi10 promoter (pCAT10-1)]”, the functional effect entry is “active”.
